These are yes or no findings as the source states them, for the method shown. A result given as binding can be weak or reduced; the word gives no strength.

Sequences of proteins named here, by UniProt entry; tags and fusion partners are left off. A change or cut given only in a name is not applied to a line headed by its entry.
UniProt O95793: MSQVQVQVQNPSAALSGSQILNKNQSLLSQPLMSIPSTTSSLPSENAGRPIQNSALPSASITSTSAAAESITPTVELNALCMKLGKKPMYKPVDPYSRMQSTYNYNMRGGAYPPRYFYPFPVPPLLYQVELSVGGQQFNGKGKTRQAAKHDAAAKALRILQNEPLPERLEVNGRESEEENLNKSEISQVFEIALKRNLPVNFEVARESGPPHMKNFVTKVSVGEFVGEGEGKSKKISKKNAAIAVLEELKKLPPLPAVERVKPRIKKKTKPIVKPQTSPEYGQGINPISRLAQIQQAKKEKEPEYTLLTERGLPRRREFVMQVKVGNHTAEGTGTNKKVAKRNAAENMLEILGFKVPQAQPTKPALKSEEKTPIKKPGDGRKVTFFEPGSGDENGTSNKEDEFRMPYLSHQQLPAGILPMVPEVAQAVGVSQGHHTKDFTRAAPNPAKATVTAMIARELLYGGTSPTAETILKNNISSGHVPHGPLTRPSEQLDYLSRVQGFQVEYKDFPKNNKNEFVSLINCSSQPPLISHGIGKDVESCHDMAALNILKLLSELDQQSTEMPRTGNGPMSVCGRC
UniProt Q9HAU5: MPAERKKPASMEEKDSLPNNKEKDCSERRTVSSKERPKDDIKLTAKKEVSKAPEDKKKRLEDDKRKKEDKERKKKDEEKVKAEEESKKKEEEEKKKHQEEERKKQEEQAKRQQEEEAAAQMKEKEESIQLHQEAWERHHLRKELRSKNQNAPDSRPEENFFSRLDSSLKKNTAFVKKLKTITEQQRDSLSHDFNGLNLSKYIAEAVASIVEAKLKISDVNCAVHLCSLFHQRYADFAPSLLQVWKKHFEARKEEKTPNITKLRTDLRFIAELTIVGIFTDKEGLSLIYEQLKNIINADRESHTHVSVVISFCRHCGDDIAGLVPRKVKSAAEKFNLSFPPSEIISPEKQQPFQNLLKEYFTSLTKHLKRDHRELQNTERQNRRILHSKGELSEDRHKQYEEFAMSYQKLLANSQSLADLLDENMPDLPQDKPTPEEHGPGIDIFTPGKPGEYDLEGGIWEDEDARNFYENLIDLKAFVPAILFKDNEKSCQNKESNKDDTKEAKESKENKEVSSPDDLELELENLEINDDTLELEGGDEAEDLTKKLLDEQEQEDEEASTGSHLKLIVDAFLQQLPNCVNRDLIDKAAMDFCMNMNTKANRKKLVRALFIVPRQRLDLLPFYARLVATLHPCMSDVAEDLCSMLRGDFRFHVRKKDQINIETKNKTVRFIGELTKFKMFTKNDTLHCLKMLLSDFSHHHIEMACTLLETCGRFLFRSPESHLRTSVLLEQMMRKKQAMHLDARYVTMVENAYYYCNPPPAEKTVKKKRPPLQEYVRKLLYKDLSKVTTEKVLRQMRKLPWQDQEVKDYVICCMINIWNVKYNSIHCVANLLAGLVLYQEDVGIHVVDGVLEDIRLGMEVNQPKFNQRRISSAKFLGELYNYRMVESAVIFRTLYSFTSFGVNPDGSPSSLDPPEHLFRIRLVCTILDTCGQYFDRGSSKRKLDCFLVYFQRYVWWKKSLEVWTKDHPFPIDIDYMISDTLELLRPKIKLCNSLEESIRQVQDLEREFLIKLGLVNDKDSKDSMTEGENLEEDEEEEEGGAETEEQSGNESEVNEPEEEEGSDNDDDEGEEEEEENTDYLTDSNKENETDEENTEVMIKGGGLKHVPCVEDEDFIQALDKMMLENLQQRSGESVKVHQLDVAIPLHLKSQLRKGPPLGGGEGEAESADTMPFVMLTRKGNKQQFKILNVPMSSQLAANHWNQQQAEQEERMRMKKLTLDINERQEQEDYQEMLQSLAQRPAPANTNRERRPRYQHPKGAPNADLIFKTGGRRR

This note sets out measurements from article PMC6838198, “Insights into the assembly and architecture of a Staufen-mediated mRNA decay (SMD)-competent mRNP” (Nature Communications, 2019).

In this assay the target is GST-Stau1, full length (human) (UniProt O95793). Put plainly: pull-down; GST-tagged bait and prey mixed in equal amounts, 4 °C 16 h, Glutathione Sepharose; 20 mM HEPES pH 7.5, 150 mM NaCl, 10% glycerol, 0.1% NP-40; eluted with 20 mM glutathione, SDS-PAGE and Coomassie; bands quantified with ImageJ; both purified.

For the substance “UPF2-MIF4G3 domain (from UniProt Q9HAU5) (domain or fragment)”, the binding result is given as “binds”.
